Assay results published in PubChem BioAssay AID504834 (National Center for Advancing Translational Sciences (NCATS), 2011).
The campaign covered roughly 320,000 compounds. About 22,000 (6.9%) were called active. Inconclusive results, whose numbers are uncertain, are shown with a selection of clear calls. Calls come from the whole dose curve; as a rule, active = well fitted inhibition curve with a large enough effect; inconclusive = small, poorly fitted or top-dose-only effect, or another doubt; inactive = no such curve, though single readings can be large or run the other way. Potencies beside an inconclusive call are fits to weak or partial responses and may not hold up.

Assay: Primary qHTS for delayed death inhibitors of the malarial parasite plastid, 96 hour incubation
Conditions: P. falciparum luciferase reporter growth; series mostly up to 28.7 µM
Method in brief: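 Two parasite generations (96 h, 37 C, 5% CO2) of compound exposure in infected erythrocytes (0.05% parasitemia, 2% hematocrit). Luciferase-reporter P. falciparum; decreased luminescence indicates inhibited growth, aimed at apicoplast-acting delayed death.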
Potency is the fitted concentration of half-maximal effect.

Question: Which Potency does the source give for `O=C(c1ccccc1)c1ccc(COC(=O)c2cnccn2)cc1` here?
Answer: inconclusive: 10.4 µM [inhibitor, single point]

Question: Which Potency does the source give for `O=C(Nc1cccc(Br)c1)/C(=C\c1cccnc1)NC(=O)c1ccco1` here?
Answer: inconclusive: 0.738 µM [inhibitor, full curve, poor fit]

Question: For `Cc1cc(C)n2nc(SCC(=O)N(C)C3CCCCC3)nc2n1`, which Potency is on record?
Answer: inconclusive: 0.0026 µM [inhibitor, full curve, poor fit]

Question: For `CCOc1ccc(OCC)c(NC(=O)C2CCCN(S(=O)(=O)c3c(C)n[nH]c3C)C2)c1` (stereo not drawn), which Potency is on record?
Answer: inconclusive: 18.5 µM [inhibitor, single point]

Question: With `CCOC(=O)c1cccc(NC(=O)C2CCCN(S(=O)(=O)c3c(C)nn(C)c3C)C2)c1` (stereo not drawn) as the compound, how does the Potency read?
Answer: active: 9.28 µM

Question: For `CCn1c(=NC(=O)c2cccc(N3C(=O)CCC3=O)c2)sc2c(C)ccc(OC)c21`, which Potency is on record?
Answer: inactive

Question: Which Potency does the source give for `NS(=O)(=O)c1ccc(N/N=C/c2ccc(O)c(O)c2O)c([N+](=O)[O-])c1` here?
Answer: inconclusive: 10.4 µM [inhibitor, single point]

Question: For `Brc1ccc(-c2nnc3ccc(N4CCN(c5ccccc5)CC4)nn23)cc1`, which Potency is on record?
Answer: active: 11.7 µM

Question: With `CN(CC(=O)Nc1ccccc1Cl)C(=O)c1ccc(-c2cccc(C(F)(F)F)c2)o1` as the compound, how does the Potency read?
Answer: active: 0.415 µM

Question: Which Potency does the source give for `COCc1cc(CN(C)C(=O)c2oc3c(F)cccc3c2C)[nH]n1` here?
Answer: active: 13.1 µM

Question: Which Potency does the source give for `Cc1cccn2c(=O)c3cc(C(=O)NC4CCCCC4)sc3nc12` here?
Answer: inactive

Question: With `CCN(CC)S(=O)(=O)c1ccc(N2CCOCC2)c(NC(=O)C2CSC3(C)CCC(=O)N23)c1` (stereo not drawn) as the compound, how does the Potency read?
Answer: active: 10.4 µM

Question: With `CCOc1ccc(/C=N/NC(=O)CN2CCCCCCC2)cc1` as the compound, how does the Potency read?
Answer: inconclusive: 1.85 µM [inhibitor, full curve, poor fit]

Question: Which Potency does the source give for `Cc1cccc(N2CCN(C(=O)C3CCN(S(=O)(=O)c4c(C)noc4C)CC3)CC2)c1C` here?
Answer: inconclusive: 3.7 µM [inhibitor, partial curve]

Question: With `CS(=O)(=O)N1CCC(C(=O)Nc2cccc([N+](=O)[O-])c2)CC1` as the compound, how does the Potency read?
Answer: inconclusive: 2.62 µM [inhibitor, single point]

Question: Which Potency does the source give for `O=C1CCCN1CCC1CCN(C2CC(=O)N(c3ccc(Cl)cc3)C2=O)CC1` (stereo not drawn) here?
Answer: inactive

Question: Which Potency does the source give for `COc1ccc(-c2nc3c(-c4ccc(Cl)cc4)cnn3cc2C)cc1F` here?
Answer: inconclusive: 11.7 µM [inhibitor, single point]

Question: For `Cc1cc2oc(=O)cc(CN3CCc4ccccc43)c2cc1Cl`, which Potency is on record?
Answer: inconclusive: 13.1 µM [inhibitor, single point]

Question: Which Potency does the source give for `COC(=O)c1c(C)[nH]c(/C=N/Nc2ccccc2)c1C` here?
Answer: inconclusive: 8.28 µM [inhibitor, partial curve, poor fit]

Question: Which Potency does the source give for `O=C(Nc1ccc(S(=O)(=O)N2CCCCC2)cc1)C1CCCCC1` here?
Answer: inconclusive: 4.15 µM [inhibitor, partial curve, poor fit]

Question: For `Brc1ccc(-c2nn3c(-c4ccncc4)nnc3s2)o1`, which Potency is on record?
Answer: inactive

Question: With `C/C(CC(=O)Nc1ccc2c(c1)OCCO2)=N\NC(=O)COc1ccc(Cl)c(C)c1` as the compound, how does the Potency read?
Answer: inactive

Question: For `Cc1ccc(-n2c(C)cc(C(=O)COC(=O)c3ccc[nH]c3=O)c2C)cc1`, which Potency is on record?
Answer: inconclusive: 7.38 µM [inhibitor, partial curve]

Question: For `CCNc1nc(OCCNS(=O)(=O)c2cc(C)ccc2C)nc(N(C)C)n1`, which Potency is on record?
Answer: inactive

Question: Which Potency does the source give for `O=S1(=O)N=C(N(CCO)/N=C/c2ccc(Cl)cc2)c2ccccc21` here?
Answer: inconclusive: 0.0465 µM [inhibitor, full curve, poor fit]

Question: For `COc1ccccc1N(C)S(=O)(=O)c1ccc(C(=O)Nc2nc(C)cs2)cc1`, which Potency is on record?
Answer: inconclusive: 9.28 µM [inhibitor, single point]

Question: Which Potency does the source give for `CC(=O)NC12CC3CC(C1)CC(C(=O)N1CCN(S(=O)(=O)c4ccccc4[N+](=O)[O-])CC1)(C3)C2` here?
Answer: inconclusive: 11.7 µM [inhibitor, single point]

Question: Which Potency does the source give for `O=C(O)c1ccccc1N=Cc1c(O)n(-c2nccs2)c(=O)c2ccccc12` here?
Answer: inactive

Question: For `CC(=O)c1cccc(NC(=O)N2CCC(NC(=O)C3CCCCC3)CC2)c1`, which Potency is on record?
Answer: inconclusive: 20.8 µM [inhibitor, single point]

Question: For `CCCCCOc1ccc(CSc2ncn[nH]2)cc1`, which Potency is on record?
Answer: inconclusive: 11.7 µM [inhibitor, partial curve]

Question: With `O=C(CSc1nnc(NC(=O)C2CC(=O)N(c3ccccc3)C2)s1)NC1CCCC1` (stereo not drawn) as the compound, how does the Potency read?
Answer: inactive

Question: For `O=C(Cn1nnc(-c2cccs2)n1)Nc1ccccc1C(F)(F)F`, which Potency is on record?
Answer: active: 0.294 µM

Question: With `COCCCNC(=O)CSc1nc2cc(C(=O)NCCOC)ccc2c(=O)n1Cc1ccc2c(c1)OCO2` as the compound, how does the Potency read?
Answer: inconclusive: 9.28 µM [inhibitor, partial curve, poor fit]

Question: Which Potency does the source give for `CCOC(=O)C1CCCCN1Cc1ccc(C(F)(F)F)cc1` (stereo not drawn) here?
Answer: active: 9.28 µM

Question: With `C=CCn1c(C)cc(C(=O)CSc2nnc(NC(C)C)s2)c1C` as the compound, how does the Potency read?
Answer: active: 4.65 µM

Question: For `Cc1oc(-c2ccc(Cl)cc2)cc1C(=O)NC1CCN(Cc2ccccc2)CC1`, which Potency is on record?
Answer: inconclusive: 18.5 µM [inhibitor, single point]

Question: For `Cc1ccc(Oc2cc(NN3CCCCC3)c([N+](=O)[O-])cc2[N+](=O)[O-])c(Cl)c1`, which Potency is on record?
Answer: active: 13.1 µM

Question: For `COc1cc2c(cc1OC)C1O[C@](CCCCN3C(=O)c4ccccc4C3=O)(C2)OC2=C1C(=O)CC(C)(C)C2`, which Potency is on record?
Answer: inconclusive: 3.38 µM [inhibitor, single point]

Question: Which Potency does the source give for `COc1cc(Cl)ccc1OCc1cc(C(=O)NCC(C)(C)N2CCOCC2)no1` here?
Answer: inactive

Question: With `CC(C)(C)OC(=O)NCc1ccc(CNC(=O)c2[nH]cnc2C(=O)NC2CCN(C(=O)OC(C)(C)C)CC2)cc1` as the compound, how does the Potency read?
Answer: inconclusive: 1.65 µM [inhibitor, full curve]

Question: With `O=S(=O)(CCc1nc2ccccc2[nH]1)c1ccc(Br)cc1` as the compound, how does the Potency read?
Answer: active: 10.4 µM

Question: Which Potency does the source give for `COc1ccc(N2CCN(c3nc(-c4cccs4)nc4ccccc34)CC2)cc1` here?
Answer: inconclusive: 4.15 µM [inhibitor, partial curve, poor fit]

Question: For `CC(C)n1cc(C(=O)N2CCCC(N3CCN(c4ccc(F)cc4)CC3)C2)cn1` (stereo not drawn), which Potency is on record?
Answer: inconclusive: 18.5 µM [inhibitor, single point]
